The data set is described as follows: O2 sensitivity of the donor dye in sensor films by phase shift of the luminescence (45 kHz, blue LED, OG 570). It is filed as physicochemical.

For `C[Si](C)(C)CCCS(=O)(=O)[O-].C[Si](C)(C)CCCS(=O)(=O)[O-].[Ru+2].c1ccc(-c2ccnc3c2ccc2c(-c4ccccc4)ccnc23)cc1.c1ccc(-c2ccnc3c2ccc2c(-c4ccccc4)ccnc23)cc1.c1ccc(-c2ccnc3c2ccc2c(-c4ccccc4)ccnc23)cc1` [Ru(diphphen)3TMS2, Ru(II)-tris-(4,7-diphenyl-1,10-phenanthroline) (3-trimethylsilyl)-1-propane sulphonate], the Phase angle by setting is: (donor dye embedded in polyacryl nitrile nanoparticles in D4 film, dry, N2) 58.2°; (donor dye embedded in polyacryl nitrile nanoparticles in D4 film, dry, air) 57.4°;; (donor dye embedded in polyacryl nitrile nanoparticles in D4 film, water, O2 free (SO3^2−)) 58.6°; (donor dye embedded in polyacryl nitrile nanoparticles in D4 film, water, air saturated) 56.8°; (donor dye unprotected in acceptor phase (polymer D4 film), dry, N2) 58.3°; (donor dye unprotected in acceptor phase (polymer D4 film), dry, air) 55.4°. The Phase angle is, setting by setting: (donor dye unprotected in acceptor phase (polymer D4 film), water, N2 saturated) 58.4°; (donor dye unprotected in acceptor phase (polymer D4 film), water, air saturated) 53.5°.
